The campaign covered roughly 220,000 compounds. About 2,400 (1.1%) were called active. This list was built around the results that the source calls inconclusive (neither active nor inactive); the mix of calls is not that of the screen. Calls come from the whole dose curve; as a rule, active = well fitted inhibition curve with a large enough effect; inconclusive = small, poorly fitted or top-dose-only effect, or effect the other way; inactive = no such curve, though single readings can be large or run the other way. Potencies of inconclusive entries are doubtful fits and often do not repeat.
Test: qHTS Multiplex Assay to Identify Dual Action Probes in a Cell Model of Huntington: Aggregate Formation (GFP); note: nearly all actives have a fitted effect of over 60% in size
Settings: PC12 HttQ103-GFP aggregates, Acumen cytometry, 40 h; activity change, negative = inhibition: at 46.1 µM (top of the series) unless noted
In short: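 PC12 cells with ecdysone-inducible HTT exon1 Q103-GFP, induced by 100 nM tebufenozide, given compounds in a concentration series. GFP aggregates (1–25 um, 6 SD above background) counted in lysates by laser-scanning cytometry, 488 nm excitation.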
% is set by controls: 0 for no effect and ±100 for the full control effect; potency is the fitted concentration of half-maximal effect.

SMILES	activity change, negative = inhibition	Potency
CCN(CC)c1ccc(/C=C/C(=O)C2C(=O)C=C(C)OC2=O)cc1 (stereo not drawn)	inconclusive: 60.9% [activator]	–
O=S(=O)(Nc1ccccc1O)c1ccc(-c2ccccc2)cc1	–	inconclusive: 25.1 µM [inhibitor, single point]
Cc1nonc1OCCNCc1c(C(=O)N(C)C)nc2ccc(Cl)cn12	–	inconclusive: 2.51 µM [inhibitor, partial curve]
O=C(Nc1cccc(C(=O)N2CCN(c3cccc(Cl)c3)CC2)c1)c1ccccc1	–	inconclusive: 14.1 µM [inhibitor, single point]
CCOC(=O)c1sc(C)c2c1NC(c1ccc(Cl)cc1)NC2=O (stereo not drawn)	–	inconclusive: 12.6 µM [activator, single point]
CCOC(=O)C1=C(C)NC(=O)NC1c1ccco1 (stereo not drawn)	–	inactive
CCCn1c(=O)c2c(nc3n2CCN3Cc2ccco2)n(C)c1=O	–	inconclusive: 0.0251 µM [inhibitor, full curve, poor fit]
CCOC(=O)N1CCN(C(=O)C2CCCN(Cc3nc(-c4ccc(Cl)cc4)oc3C)C2)CC1 (stereo not drawn)	–	inconclusive: 7.94 µM [inhibitor, partial curve]
Cc1sc2ncnc(Nc3ccc(N4CCOCC4)cc3)c2c1-c1ccccc1	–	inconclusive: 2.51 µM [inhibitor, full curve]
CCN(CC)S(=O)(=O)c1cc(C(=O)Nc2ccccc2[N+](=O)[O-])ccc1Cl	–	inconclusive: 3.16 µM [activator, partial curve]
CN(C)c1ccc(CNc2ccc3c(c2)ncn3C)cc1	–	inconclusive: 20 µM [inhibitor, single point]
Cc1cc(OCCCn2ccnc2)cc(C(C)C)c1	–	inconclusive: 1.41 µM [activator, partial curve]
COc1cc(C2c3sc(=O)[nH]c3SC3C(=O)N(c4ccc(Br)cc4)C(=O)C32)ccc1O (stereo not drawn)	inactive: -3.77% [at 9.22 µM]	–
COc1cc(NC(=O)Nc2ccc(C)cc2)cc([N+](=O)[O-])c1	–	inconclusive: 11.2 µM [inhibitor, partial curve, poor fit]
CCOC(=O)C1CCN(C(=S)Nc2ccc(C)cc2)CC1	–	inactive
Cc1ccc2[nH]c(=O)c(C(c3nnnn3CC3CCCO3)N3CCCc4ccccc43)cc2c1 (stereo not drawn)	–	inactive
CC(=O)c1c(C)nc2ccc(Br)cc2c1C(=O)O	–	inconclusive: 6.31 µM [activator, partial curve]
O=C(Nc1ccccc1)N(C1=NCCCCS1)c1ccccc1	–	inconclusive: 0.631 µM [activator, full curve, poor fit]
O=C(C(Sc1ccccc1)c1ccccc1)N1CCN(c2ccccc2F)CC1 (stereo not drawn)	–	active: 10 µM
COc1ccc(CC(=O)NC2=NCCS2)cc1	–	inactive
C=CCNC(=S)NC(=O)c1ccc(C)c(Br)c1	–	inactive
CCc1ccc(/C=N/NC(=O)c2ccccn2)cc1	inactive: 7.02% [at 9.22 µM]	–
Cc1ccc(NC(=O)CSc2ccc(-c3ccccn3)nn2)cc1	–	inconclusive: 1.26 µM [inhibitor, single point]

Exported with bars between the fields: part of the list above.
SMILES | activity change, negative = inhibition | Potency
CCOC(=O)c1sc(C)c2c1NC(c1ccc(Cl)cc1)NC2=O (stereo not drawn) | – | inconclusive: 12.6 µM [activator, single point]
CCOC(=O)C1=C(C)NC(=O)NC1c1ccco1 (stereo not drawn) | – | inactive
CCCn1c(=O)c2c(nc3n2CCN3Cc2ccco2)n(C)c1=O | – | inconclusive: 0.0251 µM [inhibitor, full curve, poor fit]

Further results

SMILES	activity change, negative = inhibition	Potency
CC(=O)/C(=N\Nc1ccccc1)Sc1cccc2cccnc12	–	inactive
C/C=C(\CS(=O)(=O)c1ccccc1)S(=O)(=O)c1ccccc1	–	inconclusive: 3.55 µM [activator, single point]
COCC(C)n1c(C)cc(C(=O)COC(=O)c2c(NC(C)=O)sc(C)c2C)c1C (stereo not drawn)	–	inconclusive: 0.562 µM [activator, full curve, poor fit]
CCc1ccc(C(C)NC(=O)c2cc(C)oc2C)cc1 (stereo not drawn)	–	inconclusive: 25.1 µM [activator, partial curve]
Cc1noc(C)c1COC(=O)Cc1ccc(Cl)c(Cl)c1	–	active: 0.794 µM
NC(=S)N/N=C/c1ncc(C(F)(F)F)cc1Cl	–	inconclusive: 1 µM [inhibitor, single point]
CC(NC(=O)CCCCCCN1C(=O)c2ccccc2C1=O)c1ccc2c(c1)CCCC2 (stereo not drawn)	–	active: 10 µM
CCc1cc(C(=O)Cc2ccc(F)cc2)c(O)cc1O	–	inconclusive: 20 µM [inhibitor, single point]
COc1ccc(-c2nc(N3CCOCC3)nc3n[nH]c(N)c23)cc1	–	inconclusive: 1 µM [inhibitor, full curve]
COc1ccc(S(=O)(=O)N2CCN(c3ccc4nnc(-c5ccc(F)cc5)n4n3)CC2)cc1	–	inconclusive: 35.5 µM [inhibitor, single point]
O=c1c2c3nc4ccccc4nc3n(/N=C/c3ccncc3)c2ncn1-c1ccccc1	inactive: -12% [at 9.22 µM]	–
COc1ccc(Cc2nnc(NC(=O)Cn3cnc4c3c(=O)n(C)c(=O)n4C)s2)cc1OC	–	inconclusive: 35.5 µM [activator, single point]
CCOC(=O)c1cc2occc2n1Cc1ccc(F)cc1	–	inconclusive: 35.5 µM [inhibitor, single point]
CCC(C)(C)n1nnnc1C(c1cccs1)N1CCc2ccccc21 (stereo not drawn)	–	inconclusive: 22.4 µM [inhibitor, single point]
CC(C)CNC(=O)C1CCN(c2ccc(S(=O)(=O)N3CCOCC3)cc2Cl)CC1	–	inactive
CNC(=S)N(Cc1cccs1)Cc1cc2cc(OC)ccc2[nH]c1=O	–	inconclusive: 3.16 µM [inhibitor, partial curve, poor fit]
NS(=O)(=O)c1ccc(Sc2nc3ccccc3s2)c([N+](=O)[O-])c1	inactive: -23.6% [at 9.22 µM]	–
O=S(=O)(c1cccc(C(F)(F)F)c1)N1CCN(C(=S)NCc2ccco2)CC1	–	inconclusive: 1 µM [activator, single point]
CCC(C)(C)c1ccc(Oc2ccc(NC(=O)COC(=O)C3=COCCO3)cc2)cc1	–	inconclusive: 11.2 µM [inhibitor, partial curve]
Cc1nn(-c2ccc(C(=O)O)cc2)c(=O)c2ccccc12	–	inconclusive: 5.62 µM [inhibitor, single point]
CCc1ccc2[nH]c(=O)c(CN(Cc3ccc4c(c3)OCO4)Cc3nnnn3C3CCCC3)cc2c1	–	inconclusive: 35.5 µM [inhibitor, single point]
O=C(OCC(=O)N1CCN(C(=O)c2ccco2)CC1)c1cc(-c2ccc(Cl)c(Cl)c2Cl)nc2ccccc12	inactive: 1.16% [at 9.22 µM]	–
Cc1cc(NC(=O)c2ccc3c(c2)OCCO3)ccc1NC(=O)c1cc2ccccc2o1	–	inconclusive: 11.2 µM [inhibitor, single point]

SMILES	activity change, negative = inhibition	Potency
COC(=O)c1ccc(C2c3c(oc4ccccc4c3=O)C(=O)N2CCCN2CCOCC2)cc1 (stereo not drawn)	–	inactive
Cc1csc(NC(=O)CSc2nnc(-c3ccncc3)n2C)n1	–	active: 0.0008 µM
COC(=O)c1cc(=O)n(CCc2ccc(OC)cc2)c(=Nc2ccc(F)c(Cl)c2)s1	–	inconclusive: 35.5 µM [inhibitor, single point]
O=C(NNc1ccccn1)C(=O)NNS(=O)(=O)c1ccc(Cl)cc1	–	inconclusive: 11.2 µM [inhibitor, partial curve]
CCc1ccc(C(=O)NN(C(=O)c2ccc(CC)cc2)C(C)(C)C)cc1	–	inactive
Cc1nc(SCC(=O)Nc2cc(C)on2)c2c(=O)n(C)c(=O)n(C)c2n1	–	inconclusive: 1.12 µM [activator, partial curve]
O=C(c1cc(-c2ccncc2)nc2ccc(Cl)cc12)N1CCN(Cc2ccc3c(c2)OCO3)CC1	–	inconclusive: 22.4 µM [inhibitor, single point]
O=C(c1ccc(S(=O)(=O)N2CCCCCC2)cc1)N1CCC(CN2C(=O)c3cccc4cccc(c34)C2=O)CC1	–	inconclusive: 2.82 µM [activator, full curve, poor fit]
CC1=CC(C)C2(CO)COC(c3ccccc3O)C1C2C (stereo not drawn)	–	inconclusive: 0.562 µM [inhibitor, full curve, poor fit]
FC(F)(F)c1cccc(Cn2nnnc2-c2ccc(Cl)cc2)c1	–	inconclusive: 35.5 µM [inhibitor, single point]
Nc1ccc(N2CCN(c3ccc(F)cc3)CC2)cc1	–	inconclusive: 2.51 µM [activator, full curve]
Cc1ccc(-c2nnc(SCC(=O)N/N=C/c3cccs3)n2-c2ccc(C)cc2)cc1	–	inconclusive: 15.8 µM [activator, single point]
CCOC(=O)c1sc(NC(=O)c2ccncc2)c(C#N)c1C	–	active: 20 µM
COc1ccc(NCC(=O)n2c(C)c(C)c3ccccc32)cc1	–	inactive
CN1CCc2c(sc3c2C(=O)NC(c2cn(Cc4ccccc4)c4ccccc24)N3)C1 (stereo not drawn)	–	inconclusive: 14.1 µM [inhibitor, single point]
CC(C)(C)C1=CC(=O)C(N2CCOCC2)=CC1=O	–	inconclusive: 28.2 µM [inhibitor, single point]
Cc1nn(-c2ccccc2)c(Cl)c1/C=C1\SC(=S)N(CCCCCC(=O)O)C1=O	inactive: 24% [at 9.22 µM]	–
Cc1c(C(=O)Oc2cccc3cccnc23)cccc1[N+](=O)[O-]	–	inactive
CCOC(=O)c1cnc2c(C#N)cnn2c1N	–	inconclusive: 3.55 µM [activator, single point]
Cc1ccc(N2CCN(S(=O)(=O)c3ccc(F)c(C)c3)CC2)c(C)c1	–	inconclusive: 35.5 µM [inhibitor, single point]
CC(C)c1nc2sc3c(SCC(=O)NCc4ccco4)ncnc3c2c2c1CCC2	–	inconclusive: 35.5 µM [inhibitor, single point]
COc1ccc(CC(=O)Nc2nc3ccc(F)cc3s2)cc1S(=O)(=O)N1CCOCC1	–	inconclusive: 31.6 µM [inhibitor, partial curve]

Reference: PubChem BioAssay AID1688 (National Center for Advancing Translational Sciences (NCATS), 2009)
